Data taken from PMC11242351.
No constants are given. Whether binding was seen depends on the method and setting. Binding seen in cells or lysates may run through a third protein. Here binding means that the protein was enriched with, or labelled near, the bait; the list need not be complete.

Chains of the proteins cited; added tags and fusions are not shown.
UniProt O95236: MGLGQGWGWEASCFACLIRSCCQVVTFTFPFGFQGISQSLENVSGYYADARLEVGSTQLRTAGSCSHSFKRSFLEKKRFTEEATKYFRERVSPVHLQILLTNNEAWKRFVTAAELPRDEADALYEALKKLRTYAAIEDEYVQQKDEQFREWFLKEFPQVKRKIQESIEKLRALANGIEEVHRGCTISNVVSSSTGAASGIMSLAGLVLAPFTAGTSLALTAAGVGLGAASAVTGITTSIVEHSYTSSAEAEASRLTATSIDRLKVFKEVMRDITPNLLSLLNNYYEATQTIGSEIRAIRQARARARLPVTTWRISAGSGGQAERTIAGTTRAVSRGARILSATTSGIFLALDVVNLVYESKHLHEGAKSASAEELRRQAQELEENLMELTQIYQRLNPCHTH
UniProt P67809: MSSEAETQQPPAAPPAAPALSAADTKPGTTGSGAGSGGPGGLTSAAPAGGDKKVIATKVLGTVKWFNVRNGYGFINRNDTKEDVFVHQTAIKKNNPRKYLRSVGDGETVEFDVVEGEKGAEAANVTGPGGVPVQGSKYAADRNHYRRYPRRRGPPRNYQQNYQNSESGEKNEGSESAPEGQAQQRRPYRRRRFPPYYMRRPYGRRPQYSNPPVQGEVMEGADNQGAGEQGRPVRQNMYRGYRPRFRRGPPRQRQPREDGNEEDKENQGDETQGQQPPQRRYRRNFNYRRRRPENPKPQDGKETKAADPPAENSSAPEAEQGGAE

Target: Apolipoprotein L3 (APOL3), MYC-tagged, overexpressed from the PEGFP-APOL3-MYC vector (UniProt O95236)
Assay: affinity purification with mass spectrometry; APOL3-IP against IgG control from MCF7 cells overexpressing APOL3; proteins identified by mass spectrometry

binding: binds
Substance: Y-box binding protein 1 (YBX1) (from UniProt P67809 1-324)
